Screen size: about 1,400 compounds; about 940 (67%) were called active. The set was probably picked from earlier hits. Inconclusive results, whose numbers are uncertain, are shown with a selection of clear calls. The call rests on the fitted dose curve. Where the call is inconclusive, the potency comes from a doubtful curve fit.
Target: Atrial natriuretic peptide receptor 2 (Homo sapiens) (UniProt P20594)
Assay: Natriuretic polypeptide receptor (hNpr2) antagonism - Subtype selectivity assay; further: nearly all actives have a fitted effect of over 70% in size
Conditions: HEK293 hNpr2 GloSensor cGMP luminescence, CNP-stimulated; series mostly up to 57.6 µM
Procedure, shortened: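 First, HEK293 hNpr2 cGMP-reporter cells took up 2% GloSensor reagent over 2 h. Next came 30 min of compound exposure and a baseline luminescence read. Finally, 1 nM hNppC was added and a second read followed 20 min later.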
Potency means the concentration at half of the fitted maximal effect.

Protein sequences, listed by entry. Tags and fused reporters are not part of them. Lines headed by an entry give the natural chain unless they say otherwise; changes in a name come on top.
UniProt P20594: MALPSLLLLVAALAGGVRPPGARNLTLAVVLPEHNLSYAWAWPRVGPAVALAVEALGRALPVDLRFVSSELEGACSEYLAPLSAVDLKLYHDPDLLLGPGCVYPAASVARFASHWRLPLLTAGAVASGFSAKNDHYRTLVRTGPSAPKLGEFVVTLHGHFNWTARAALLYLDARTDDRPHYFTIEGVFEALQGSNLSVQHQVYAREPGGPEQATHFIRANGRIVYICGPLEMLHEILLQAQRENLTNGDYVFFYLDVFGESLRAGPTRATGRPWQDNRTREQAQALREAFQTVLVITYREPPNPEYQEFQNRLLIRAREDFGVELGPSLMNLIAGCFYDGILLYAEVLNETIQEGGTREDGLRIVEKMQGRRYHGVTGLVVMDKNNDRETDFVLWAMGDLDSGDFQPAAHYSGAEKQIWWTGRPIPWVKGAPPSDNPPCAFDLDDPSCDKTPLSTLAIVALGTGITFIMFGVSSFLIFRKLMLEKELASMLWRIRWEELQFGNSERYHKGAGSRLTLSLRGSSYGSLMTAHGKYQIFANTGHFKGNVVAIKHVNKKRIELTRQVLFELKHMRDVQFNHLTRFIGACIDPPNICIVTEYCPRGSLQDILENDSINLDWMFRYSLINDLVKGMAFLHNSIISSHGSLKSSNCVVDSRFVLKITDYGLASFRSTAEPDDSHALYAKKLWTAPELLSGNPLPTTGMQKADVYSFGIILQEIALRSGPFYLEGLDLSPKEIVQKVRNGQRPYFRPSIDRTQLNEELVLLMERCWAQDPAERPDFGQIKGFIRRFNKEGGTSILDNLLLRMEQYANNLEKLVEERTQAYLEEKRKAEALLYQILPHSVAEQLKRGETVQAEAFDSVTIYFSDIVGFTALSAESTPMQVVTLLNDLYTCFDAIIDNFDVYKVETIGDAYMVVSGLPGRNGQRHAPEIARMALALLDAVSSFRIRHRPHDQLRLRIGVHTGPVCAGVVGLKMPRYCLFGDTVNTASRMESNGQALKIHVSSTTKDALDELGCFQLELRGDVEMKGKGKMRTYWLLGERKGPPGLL

| Structure (SMILES) | Potency |
| --- | --- |
| COC(=O)[C@@H]1Cc2ncn(Cc3ccc(Cl)cc3)c2CN1C(=O)c1ccc(C(F)(F)F)cc1 | inactive |
| O=c1[nH]c(C2CCN(Cc3cccc(-c4cccs4)c3)CC2)nc2ccc(F)cc12 | inconclusive: 34.3 µM [inhibitor, single point] |
| CCOC(=O)C1=CN(CC(=O)Nc2c(C)cc(C)cc2C)S(=O)(=O)N=C1C | inconclusive: 21.7 µM [inhibitor, partial curve] |
| Oc1ccc(-c2nc(C3CC3)nc3c2CCN(Cc2cccc4ccccc24)CC3)cc1 | inconclusive: 43.2 µM [inhibitor, single point] |
| COc1ccc(-c2noc(CC3CCN(C(=O)Cc4ccccc4)CC3)n2)cc1 | inconclusive: 43.2 µM [inhibitor, single point] |
| O=C1CCC2(CCN1Cc1ccccc1)CCN(S(=O)(=O)c1cccs1)CC2 | inactive |
| O=C(C1CC(=O)N(c2n[nH]c3ccccc23)C1)N1CCC(c2noc3cc(F)ccc23)CC1 (centres undefined) | inconclusive: 27.3 µM [inhibitor, partial curve, poor fit] |
| CCCCOc1ccc(C(=O)N2CCC[C@H]2c2nc(-c3ccc(OC)cc3)no2)cc1 | inactive |
| O=C(NCCc1ccccc1)c1cc2n(n1)CC(c1ccc(Cl)cc1)OC2 (centres undefined) | inconclusive: 24.3 µM [inhibitor, partial curve] |
| COc1ccc(-c2noc(CC3CCN(C(=O)c4cc(F)ccc4Cl)CC3)n2)cc1 | active: 13.7 µM |
| Cc1ccc(NC(=O)CCC2CCN(S(=O)(=O)c3ccccc3C)CC2)cc1F | inconclusive: 24.3 µM [inhibitor, single point] |
| CN1CC(=O)N(C2CCNC2)Cc2c1ncnc2N1CC[C@H](N(C)C)C1 (some centres undefined) | inactive |
| CCNC(=O)CC1=CSC2=NC(C)=C(C(=O)Nc3ccccc3)C(c3ccc(F)cc3)N12 (centres undefined) | inactive |
| O=C(NCc1ccccc1)c1nc2c(o1)CCN(Cc1ccc(F)cc1F)CC2 | active: 35.3 µM |
| O=C(Nc1ccc(F)cc1)c1c[nH]c2cccnc12 | inconclusive: 28 µM [inhibitor, partial curve] |
| O=C(c1ccc(Cl)cc1)N1CCC(n2cc(-c3nc(-c4ccccc4)no3)nn2)CC1 | active: 21.7 µM |
| CC(C)(Oc1nn(Cc2cccc(Cl)c2)c2ccccc12)C(=O)N1CCN(CCO)CC1 | inconclusive: 13.7 µM [inhibitor, partial curve] |
| CCOC(=O)c1ccc(CNC(=O)N2CCC3(CC2)CN(c2ccccc2)C3=O)cc1 | inconclusive: 27.3 µM [inhibitor, single point] |
| CCOC(=O)C1=C(C)N=C2SC=C(CC(=O)NCc3ccco3)N2C1c1ccccc1Cl (centres undefined) | inconclusive: 21.7 µM [inhibitor, partial curve] |
| Cc1noc(-c2ccco2)c1C(=O)NCc1cccc2ccccc12 | inconclusive: 24.3 µM [inhibitor, partial curve] |
| Cc1nn2c(c1-c1ccnn1C(C)C)N(Cc1cccc(C#N)c1)CCC2 | inconclusive: 28 µM [inhibitor, partial curve, poor fit] |
| O=C(Nc1ccccc1)O[C@@H]1CO[C@H]2[C@@H]1OC[C@@H]2NC(=O)c1ccc2c(c1)OCO2 | inconclusive: 31.4 µM [inhibitor, partial curve] |

| Structure (SMILES) | Potency |
| --- | --- |
| COc1ccc(C(=O)NCCc2noc(-c3ccccc3)n2)cc1F | inactive |
| COc1cccc(C2C(C(=O)Nc3ccccc3)=C(C)N=C3SC=C(CC(=O)NCC(C)C)N32)c1 (centres undefined) | inconclusive: 43.2 µM [inhibitor, single point] |
| Cc1nn2c(c1-c1ccccc1-c1ccccc1)N(Cc1cccc(O)c1)CCC2 | active: 4.98 µM |
| Cc1ccc(CNC(=O)N2CCC(Oc3ccc(-c4noc(C)n4)cc3)C2)cc1 (centres undefined) | inactive |
| N#Cc1ccc(C(=O)NC2CCN(c3cc(-c4ccc(Cl)cc4)[nH]n3)CC2)cc1 | inconclusive: 21.7 µM [inhibitor, partial curve] |
| Cn1nccc1-c1ncc2c(n1)OCCN(Cc1ccc(F)cc1F)C2=O | active: 35.3 µM |
| Cc1ccc(F)c(C(CC(=O)NCc2ccco2)c2c[nH]c3ccc([N+](=O)[O-])cc23)c1 (centres undefined) | inconclusive: 24.3 µM [inhibitor, partial curve] |
| O=S(=O)(c1ccc2c(c1)CCCC2)N1CCCC(Cn2cnc3cccnc32)C1 (centres undefined) | active: 19.3 µM |
| O=S(=O)(N[C@H]1CO[C@H]2[C@@H]1OC[C@@H]2Nc1nccc(-c2ccc3c(c2)OCO3)n1)c1ccc2ccccc2c1 | inconclusive: 27.3 µM [inhibitor, partial curve] |
| COc1ccc(C2Cn3nnc(C(=O)N4CCN(C(=O)CCc5ccccc5)CC4)c3CO2)cc1 (centres undefined) | inconclusive: 21.7 µM [inhibitor, partial curve] |
| Cc1cccc(C(=O)N2CCC(Oc3ccc(-c4noc(C(C)C)n4)cc3)C2)c1 (centres undefined) | inconclusive: 43.2 µM [inhibitor, single point] |
| O=C(Nc1ccc(Oc2ccccc2)cc1)c1cc2n(n1)CC(c1ccc(Cl)cc1)OC2 (centres undefined) | active: 4.85 µM |
| CC1=NS(=O)(=O)N(Cc2ccccc2)C=C1C(=O)OCc1noc(-c2ccc(C)c(C)c2)n1 | inconclusive: 17.2 µM [inhibitor, partial curve] |
| Cc1cc(=O)n(CC(=O)NCCCc2ccccc2)c(N2CCc3ccccc3C2)n1 | inconclusive: 43.2 µM [inhibitor, single point] |
| COCc1noc(-c2ccc(N(C)CC3CC(=O)N(C(C)(C)C)C3)nc2)n1 (centres undefined) | inconclusive: 21.7 µM [inhibitor, partial curve] |
| CC1=C[C@@H](CN2CCN(c3ncccn3)CC2)[C@H](C(C)C)C[C@H]1Cc1nnc(-c2ccccc2F)o1 | inconclusive: 27.3 µM [inhibitor, partial curve] |
| O=C(CCC1CCCC1)NCCc1noc(-c2ccccc2)n1 | inactive |
| O=C(NC[C@H]1Cn2c(-c3ccc4c(c3)OCCO4)cnc2CO1)Nc1ccccc1 | inconclusive: 28 µM [inhibitor, partial curve] |
| O=C(CCC1CCCN(S(=O)(=O)c2ccccc2)C1)N1CCN(c2ccccn2)CC1 (centres undefined) | inconclusive: 24.3 µM [inhibitor, partial curve, poor fit] |
| Cc1noc(C)c1CN1CCc2nc(C(=O)Nc3cccc(C(F)(F)F)c3)oc2CC1 | active: 31.4 µM |
| O=C(Nc1ccccc1)c1cc2n(n1)CC(c1ccc(Cl)cc1)OC2 (centres undefined) | inconclusive: 24.3 µM [inhibitor, partial curve] |
| CN(C)c1ccc(CN[C@H]2CO[C@H]3[C@@H]2OC[C@H]3OC(=O)Nc2ccc(Oc3ccccc3)cc2)cc1 | inconclusive: 30.6 µM [inhibitor, single point] |

Another view of three compounds above.
Structure (SMILES)	Potency
CCOC(=O)c1ccc(CNC(=O)N2CCC3(CC2)CN(c2ccccc2)C3=O)cc1	inconclusive: 27.3 µM [inhibitor, single point]
CCOC(=O)C1=C(C)N=C2SC=C(CC(=O)NCc3ccco3)N2C1c1ccccc1Cl (centres undefined)	inconclusive: 21.7 µM [inhibitor, partial curve]
Cc1noc(-c2ccco2)c1C(=O)NCc1cccc2ccccc12	inconclusive: 24.3 µM [inhibitor, partial curve]

The list continues:

| Structure (SMILES) | Potency |
| --- | --- |
| CCCOc1ccccc1C(=O)N1CCc2onc(-c3ccccc3)c2C1 | inconclusive: 19.3 µM [inhibitor, partial curve] |
| O=C(c1ccccc1)N1CCN(c2cc(-c3ccc(Cl)cc3)[nH]n2)CC1 | inconclusive: 34.3 µM [inhibitor, single point] |
| CC(C)(C)C(=O)N[C@H]1C[C@@H](Cc2cc(CN3CCN(c4ccccc4)CC3)on2)C1(C)C | active: 17.2 µM |
| COc1cccc(CN2CCN(c3nc4c(s3)c(C)nn4C)CC2=O)c1 | inconclusive: 24.3 µM [inhibitor, partial curve] |
| O=C(NCc1ccc(N2CCCC2)cc1)C1CCCN(c2cnn(Cc3ccccc3)c(=O)c2)C1 (centres undefined) | inconclusive: 19.3 µM [inhibitor, partial curve] |
| O=C(CCn1cc(Cl)cn1)N1CCOC(c2ccc(Cl)cc2)C1 (centres undefined) | inconclusive: 13.7 µM [inhibitor, partial curve] |
| NS(=O)(=O)c1ccc(CCNC(=O)c2cc3n(n2)CC(c2ccc(Cl)cc2)OC3)cc1 (centres undefined) | inconclusive: 34.3 µM [inhibitor, single point] |
| O=C(c1ccc(C(F)(F)F)cc1)N1CCC2(CNc3ccccc3[S+](=O)([O-])N2)C1 (centres undefined) | inconclusive: 21.7 µM [inhibitor, partial curve] |
| O=C(NC1CCCc2c1[nH]c1ccc(Cl)cc21)c1ccncc1 (centres undefined) | inactive |
| O=C(Nc1cc(F)cc(F)c1)N1CCC(CCNC(=O)C2(c3ccccc3)CC2)CC1 | inactive |
| Cc1nn2c(c1-c1ccccc1OCc1ccccc1)N(C(=O)CCc1cccnc1)CCC2 | inconclusive: 17.2 µM [inhibitor, partial curve] |
| CN(Cc1cccnc1)c1ccc2ncc(Nc3ccc(C(F)(F)F)cc3)n2n1 | active: 31.4 µM |
| O=C(Cc1ccsc1)N1CCC(Cc2nc(-c3ccc(F)cc3)no2)CC1 | active: 4.85 µM |
| O=C(NCCCn1ccnc1)c1nc(-c2ccccc2)cc2[nH]ccc12 | inconclusive: 31.4 µM [inhibitor, partial curve] |
| COc1cc(NC(=O)c2cc3n(n2)CC(c2ccc(Br)cc2)OC3)cc(OC)c1OC (centres undefined) | inactive |
| CC(=O)Nc1ccc(C(=O)N2CCC3(CC2)N=C(c2ccc(Cl)cc2)NO3)cc1 | inconclusive: 24.3 µM [inhibitor, partial curve, poor fit] |
| Cc1nc(CN2C(=O)OC3(CCN(Cc4c[nH]c5ccccc45)CC3)C2(C)c2ccccc2)cs1 (centres undefined) | inconclusive: 27.3 µM [inhibitor, single point] |
| Cc1ccc2nc3n(c2c1)[C@@H](CNCc1ccc2c(c1)OCO2)COC3 | active: 35.3 µM |
| Cc1ccc(C(=O)N2CCC(Cc3nc(-c4ccccc4)no3)CC2)s1 | active: 9.68 µM |
| O=C1COc2ccc(NCCOc3ccccc3)nc2CN1Cc1ccccc1F | active: 35.3 µM |
